# Data as given in article PMC8608845.
# These are yes or no findings as the source states them, for the method shown. In cells and extracts the contact can be indirect. Some entries that bind do so weakly or less than the wild type. Tags and fused reporters may be left off the sequences shown.
# T1: TRIB1-glutathione-S-transferase fusion protein (UniProt Q8K4K4)
# T1 sequence: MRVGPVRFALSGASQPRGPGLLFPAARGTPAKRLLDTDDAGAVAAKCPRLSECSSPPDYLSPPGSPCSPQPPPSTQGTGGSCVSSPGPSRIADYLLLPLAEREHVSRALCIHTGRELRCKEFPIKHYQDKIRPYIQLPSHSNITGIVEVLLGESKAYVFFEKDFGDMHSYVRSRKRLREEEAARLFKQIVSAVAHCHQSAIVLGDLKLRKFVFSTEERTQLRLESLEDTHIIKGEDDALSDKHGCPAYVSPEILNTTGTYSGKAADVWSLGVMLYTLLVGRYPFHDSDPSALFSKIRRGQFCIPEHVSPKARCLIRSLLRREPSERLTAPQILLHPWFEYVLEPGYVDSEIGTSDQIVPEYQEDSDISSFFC
# B1: UQCRC2, mitochondrial respiratory chain complex III subunit (protein, UniProt Q9DB77 15-453)
# chain: SLKVAPKVKTSAAPGGVPLQPQDLEFTKLPNGLVIASLENYAPLSRIGLFVKAGSRYEDSNNLGTSHLLRLASSLTTKGASSFKITRGIEAVGGKLSVTATRENMAYTVEGIRSDIEILMEFLLNVTTAPEFRRWEVAALRSQLKIDKAVAFQNSQTRIIENLHDVAYKNALANPLYCPDYRMGKITSEELHYFVQNHFTSARMALVGLGVSHSVLKQVAEQFLNMRGGLGLAGAKAKYRGGEIREQNGDNLVHAAIVAESAAIGNAEANAFSVLQHLLGAGPHIKRGNNTTSLLSQSVAKGSHQPFDVSAFNASYSDSGLFGIYTISQAAAAGEVINAAYNQVKAVAQGNLSSADVQAAKNKLKAGYLMSVETSEGFLSEIGSQALAAGSYMPPSTVLQQIDSVADADVVKAAKKFVSGKKSMAASGNLGHTPFLDEL
# Biological target: T1, TRIB1-glutathione-S-transferase fusion protein
# Experiment: pull-down; GST-tagged Trib1 held on GST agarose gel, incubated with extracted BAT protein at a low temperature overnight, washed five to six times, eluted by boiling in loading buffer, Western blot with UQCRC2 antibody (the paper calls it co-immunoprecipitation); only the target purified
binder,measurement,value
B1,binding,binds
